Article PMC9561260
Results are given in words; binding and its absence hold for the method and conditions named. In cells and extracts the contact can be indirect. Some entries that bind do so weakly or less than the wild type. Where a sequence is shown, tags or fusion partners need not be part of it.

The chains behind the UniProt entries cited, without tags or fusion partners.
UniProt O09106: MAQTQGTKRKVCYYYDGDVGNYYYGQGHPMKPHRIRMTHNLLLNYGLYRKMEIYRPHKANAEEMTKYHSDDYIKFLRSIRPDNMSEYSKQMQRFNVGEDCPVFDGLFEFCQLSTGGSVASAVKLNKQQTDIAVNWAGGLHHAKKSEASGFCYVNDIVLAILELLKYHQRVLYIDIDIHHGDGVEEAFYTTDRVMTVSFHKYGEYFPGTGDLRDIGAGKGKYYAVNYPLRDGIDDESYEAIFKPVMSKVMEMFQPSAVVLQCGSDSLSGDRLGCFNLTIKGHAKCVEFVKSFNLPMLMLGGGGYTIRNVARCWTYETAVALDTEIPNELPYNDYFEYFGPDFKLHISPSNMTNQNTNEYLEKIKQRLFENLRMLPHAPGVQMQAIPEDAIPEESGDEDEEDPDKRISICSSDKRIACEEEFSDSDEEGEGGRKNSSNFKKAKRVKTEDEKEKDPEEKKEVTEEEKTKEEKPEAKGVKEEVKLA

T1: 2×HA-3×FLAG-Eya1 (Eya1^HA-FLAG knockin) (mouse) (UniProt P97767)
T1 sequence: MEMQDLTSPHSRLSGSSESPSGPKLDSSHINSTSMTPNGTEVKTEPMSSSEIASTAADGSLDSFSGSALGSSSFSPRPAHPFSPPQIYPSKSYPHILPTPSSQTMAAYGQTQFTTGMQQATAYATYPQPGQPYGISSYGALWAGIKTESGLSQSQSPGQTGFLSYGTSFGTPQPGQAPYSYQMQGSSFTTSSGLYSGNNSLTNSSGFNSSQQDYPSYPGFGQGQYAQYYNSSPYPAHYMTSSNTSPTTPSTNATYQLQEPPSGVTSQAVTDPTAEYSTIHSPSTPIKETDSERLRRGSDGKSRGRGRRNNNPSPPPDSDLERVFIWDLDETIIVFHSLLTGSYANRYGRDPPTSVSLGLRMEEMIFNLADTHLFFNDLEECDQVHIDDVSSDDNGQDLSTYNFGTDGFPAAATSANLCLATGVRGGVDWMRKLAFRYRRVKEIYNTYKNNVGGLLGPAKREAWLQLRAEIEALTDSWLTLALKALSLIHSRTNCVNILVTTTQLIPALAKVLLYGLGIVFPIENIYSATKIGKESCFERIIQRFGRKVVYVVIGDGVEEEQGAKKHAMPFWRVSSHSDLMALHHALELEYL

B1: Rest (protein, UniProt Q8VIG1 1-1082)
chain: MATQVMGQSSGGGSLFNNSANMGMALTNDMYDLHELSKAELAAPQLIMLANVALTGEASGSCCDYLVGEERQMAELMPVGDNHFSESEGEGLEESADLKGLENMELGSLELSAVEPQPVFEASAAPEIYSANKDPAPETPVAEDKCRSSKAKPFRCKPCQYEAESEEQFVHHIRIHSAKKFFVEESAEKQAKAWESGSSPAEEGEFSKGPIRCDRCGYNTNRYDHYMAHLKHHLRAGENERIYKCIICTYTTVSEYHWRKHLRNHFPRKVYTCSKCNYFSDRKNNYVQHVRTHTGERPYKCELCPYSSSQKTHLTRHMRTHSGEKPFKCDQCNYVASNQHEVTRHARQVHNGPKPLNCPHCDYKTADRSNFKKHVELHVNPRQFNCPVCDYAASKKCNLQYHFKSKHPTCPSKTMDVSKVKLKKTKKREADLLNNAVSNEKMENEQTKTKGDVSGKKNEKPVKAVGKDASKEKKPGSSVSVVQVTTRTRKSAVAAETKAAEVKHTDGQTGNNPEKPCKAKKNKRKKDAEAHPSEEPVNEGPVTKKKKKSECKSKIGTNVPKGGGRAEERPGVKKQSASLKKGTKKTPPKTKTSKKGGKLAPKGMGQTEPSSGALAQVGVSPDPALIQAEVTGSGSSQTELPSPMDIAKSEPAQMEVSLTGPPPVEPAQMEPSPAKPPQVEAPTYPQPPQRGPAPPTGPAPPTGPAPPTEPAPPTGLAEMEPSPTEPSQKEPPPSMEPPCPEELPQAEPPPMEDCQKELPSPVEPAQIEVAQTAPTQVQEEPPPVSEPPRVKPTKRSSLRKDRAEKELSLLSEMARQEQVLMGVGLVPVRDSKLLKGNKSAQDPPAPPSPSPKGNSREETPKDQEMVSDGEGTIVFPLKKGGPEEAGESPAELAALKESARVSSSEQNSAMPEGGASHSKCQTGSSGLCDVDTEQKTDTVPMKDSAAEPVSPPTPTVDRDAGSPAVVASPPITLAENESQEIDEDEGIHSHDGSDLSDNMSEGSDDSGLHGARPTPPEATSKNGKAGLAGKVTEGEFVCIFCDRSFRKEKDYSKHLNRHLVNVYFLEEAAEEQEEQEEREEQE
B2: Hltf (protein, UniProt Q6PCN7 1-1003)
chain: MSYTFTRGPVWKYSQSVQYGSHENIPRLSYSTFLPHFEFQDIIPPDDFLTSDEEQDLVLFGTMRGQVVGLRYYTGVVNNNEMVALQREPNNPYDKNAIKVNNVNGNQVGHIKREIAAAVAYIMDNKLAQVEGVVPFGASNTFTMPLYMTFWGKEENRNVVLEQLKKHGFKLGPTPKTLGSSLENAWGSGRAGPSYSRPAHVAVQMTTDQLKTEFDKLFEDLKEDDRTVEMEPAEAIETPLLPHQKQALAWMIARENSKELPPFWEQRNDLYYNTITNFSVKERPENVHGGILADDMGLGKTLTAIAVILTNFDDGRPLLSKRGKKNHPGKEYKDETIKRRGSNMDKKEDGHSESSTCGEEPSISGTPEKSSCTLSQLSSVCPKRRKISVQYIESSDSEEIETSELPQKMKGKLKNVQLNTKSRVKGSSKVKEDSKFALTFFASATQRKMLKKGMSMMECSEACDTGERTRATLIICPLSVLSNWIDQFGQHVKSEVHLNFYVYYGPDRIRDSAWLSKQDIILTTYNILTHDYGTKDDSPLHSIKWLRVILDEGHAIRNPNAQQTKAVLELEAERRWVLTGTPIQNSLKDLWSLLSFLKLKPFIDREWWYRIIQRPVTTGDEGGLRRLQSLIKNITLRRTKTSKIKGKPVLELPERKVFIQHITLSEEERKIYQSVKNEGKAAIGRYFTEGTVLAHYADVLGLLLRLRQICCHTHLLTNGMSSSGPSRSDTPEELRKMLIEKMKIILSSGSDEECAICLDSLTFPVITHCAHVFCKPCICQVIHSEQPHAKCPLCRNEIHGDNLLECPPEELACDSDKESSMEWKSSSKINALMHALIELRTKDPNIKSLVVSQFTTFLSLIETPLKASGFVFTRLDGSMAQKKRVESIQRFQNTEAGSPTIMLLSLKAGGVGLNLCAASRVFLMDPAWNPAAEDQCFDRCHRLGQKQEVIITKFIVKDSVEENMLKIQNTKRDLAAGAFGTKKTDANDMKQAKINEIRTLIDL
B3: Cdyl (protein, UniProt Q9WTK2 1-593)
chain: MGIGNSQPNSQEAQLCTLPEKAEQPTDDNTCQQNNVVPATVSEPDQASPAIQDAETQVESIVDKRKNKKGKTEYLVRWKGYDSEDDTWEPEQHLVNCEEYIHDFNRRHNERQKEGSLARASRASPSNARKQISRSTHSTLSKTNSKALVVGKDHESKSSQLLAASQKFRKNPAPSLANRKNMDLAKSGIKILVPKSPVKGRTSVDGFQGESPEKLDPVDQGAEDTVAPEVTAEKPTGALLGPGAERARMGSRPRIHPLVPQVSGPVTAAMATGLAVNGKGTSPFMDALAANGTVTIQTSVTGVTAGKRKFIDDRRDQPFDKRLRFSVRQTESAYRYRDIVVRKQDGFTHILLSTKSSENNSLNPEVMKEVQSALSTAAADDSKLVLLSAVGSVFCCGLDFIYFIRRLTDDRKRESTKMADAIRNFVNTFIQFKKPIIVAVNGPAIGLGASILPLCDVVWANEKAWFQTPYTTFGQSPDGCSTVMFPKIMGGASANEMLFSGRKLTAQEACGKGLVSQVFWPGTFTQEVMVRIKELASCNPVVLEESKALVRCNMKMELEQANERECEVLKKIWGSAQGMDSMLKYLQRKIDEF

These molecules were tested against T1, 2×HA-3×FLAG-Eya1 (Eya1^HA-FLAG knockin) (mouse) (assay: co-IP; lysate of E14.5 Eya1^HA-FLAG kidneys on anti-FLAG M2 beads overnight; washed 4 times with IP buffer with 0.1% detergent; western blot).

binding, binds:
Hdac1 (from UniProt O09106 1-482)
B1
B2
B3
